The text below walks through data of article PMC4358907.

Chains of the proteins cited; added tags and fusions are not shown. Lines headed by an entry give the natural chain unless they say otherwise; changes in a name come on top.
UniProt F4J7T3: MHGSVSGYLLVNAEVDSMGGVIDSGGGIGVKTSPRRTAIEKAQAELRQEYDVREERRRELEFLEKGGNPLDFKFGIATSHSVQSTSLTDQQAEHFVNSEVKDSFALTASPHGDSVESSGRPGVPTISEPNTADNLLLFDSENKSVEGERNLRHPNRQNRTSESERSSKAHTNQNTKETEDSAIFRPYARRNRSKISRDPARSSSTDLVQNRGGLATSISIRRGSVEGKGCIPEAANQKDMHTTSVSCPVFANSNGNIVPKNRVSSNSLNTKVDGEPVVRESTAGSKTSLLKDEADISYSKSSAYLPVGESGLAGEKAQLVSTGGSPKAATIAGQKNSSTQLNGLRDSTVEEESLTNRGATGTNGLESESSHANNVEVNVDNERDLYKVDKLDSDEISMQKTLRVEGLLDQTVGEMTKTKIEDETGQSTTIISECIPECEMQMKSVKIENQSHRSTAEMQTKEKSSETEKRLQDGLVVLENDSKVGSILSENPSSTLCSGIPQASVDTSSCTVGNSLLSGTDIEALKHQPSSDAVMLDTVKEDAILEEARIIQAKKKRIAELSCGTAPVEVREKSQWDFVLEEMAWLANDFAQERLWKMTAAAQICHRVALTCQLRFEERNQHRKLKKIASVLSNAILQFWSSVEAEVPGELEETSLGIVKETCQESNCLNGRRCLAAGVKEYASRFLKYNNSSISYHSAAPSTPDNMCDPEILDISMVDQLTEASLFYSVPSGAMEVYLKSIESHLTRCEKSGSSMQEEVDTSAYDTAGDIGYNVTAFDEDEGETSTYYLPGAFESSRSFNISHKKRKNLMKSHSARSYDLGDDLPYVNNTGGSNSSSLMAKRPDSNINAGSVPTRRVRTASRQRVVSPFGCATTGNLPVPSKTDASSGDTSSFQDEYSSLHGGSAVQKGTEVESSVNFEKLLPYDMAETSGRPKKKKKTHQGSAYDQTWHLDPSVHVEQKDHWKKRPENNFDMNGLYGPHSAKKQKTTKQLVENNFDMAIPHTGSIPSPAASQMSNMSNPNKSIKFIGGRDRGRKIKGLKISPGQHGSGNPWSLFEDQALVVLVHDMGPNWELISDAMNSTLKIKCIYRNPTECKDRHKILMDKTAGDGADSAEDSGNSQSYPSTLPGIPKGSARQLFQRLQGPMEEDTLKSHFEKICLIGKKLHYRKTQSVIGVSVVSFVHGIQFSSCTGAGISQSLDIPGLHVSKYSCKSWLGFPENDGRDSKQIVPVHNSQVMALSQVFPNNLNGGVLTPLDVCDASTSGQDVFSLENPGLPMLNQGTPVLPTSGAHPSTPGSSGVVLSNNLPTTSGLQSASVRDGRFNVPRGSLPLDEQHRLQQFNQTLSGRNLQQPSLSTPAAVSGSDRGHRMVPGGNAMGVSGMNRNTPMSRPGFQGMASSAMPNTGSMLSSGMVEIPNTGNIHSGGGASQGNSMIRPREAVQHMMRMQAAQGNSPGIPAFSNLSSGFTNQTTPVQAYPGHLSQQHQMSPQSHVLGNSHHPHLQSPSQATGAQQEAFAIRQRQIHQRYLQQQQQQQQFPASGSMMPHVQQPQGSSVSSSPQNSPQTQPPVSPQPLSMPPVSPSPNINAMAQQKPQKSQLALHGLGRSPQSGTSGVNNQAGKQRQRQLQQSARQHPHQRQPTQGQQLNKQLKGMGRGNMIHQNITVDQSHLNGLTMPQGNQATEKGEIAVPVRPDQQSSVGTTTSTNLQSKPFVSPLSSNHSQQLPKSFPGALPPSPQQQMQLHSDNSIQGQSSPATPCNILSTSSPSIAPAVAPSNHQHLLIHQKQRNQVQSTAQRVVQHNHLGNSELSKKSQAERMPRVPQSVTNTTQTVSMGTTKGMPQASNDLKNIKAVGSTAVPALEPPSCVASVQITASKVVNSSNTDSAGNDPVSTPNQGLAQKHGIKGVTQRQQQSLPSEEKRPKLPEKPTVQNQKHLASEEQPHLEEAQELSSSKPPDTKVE
UniProt Q9FH40: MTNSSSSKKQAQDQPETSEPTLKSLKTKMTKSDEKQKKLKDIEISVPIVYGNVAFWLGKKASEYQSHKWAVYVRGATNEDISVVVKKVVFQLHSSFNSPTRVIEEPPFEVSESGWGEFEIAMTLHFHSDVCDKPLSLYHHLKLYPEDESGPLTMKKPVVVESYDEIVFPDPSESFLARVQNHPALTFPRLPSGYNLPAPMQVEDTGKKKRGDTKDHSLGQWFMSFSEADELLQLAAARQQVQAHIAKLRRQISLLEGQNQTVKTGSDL
UniProt Q6EVK6: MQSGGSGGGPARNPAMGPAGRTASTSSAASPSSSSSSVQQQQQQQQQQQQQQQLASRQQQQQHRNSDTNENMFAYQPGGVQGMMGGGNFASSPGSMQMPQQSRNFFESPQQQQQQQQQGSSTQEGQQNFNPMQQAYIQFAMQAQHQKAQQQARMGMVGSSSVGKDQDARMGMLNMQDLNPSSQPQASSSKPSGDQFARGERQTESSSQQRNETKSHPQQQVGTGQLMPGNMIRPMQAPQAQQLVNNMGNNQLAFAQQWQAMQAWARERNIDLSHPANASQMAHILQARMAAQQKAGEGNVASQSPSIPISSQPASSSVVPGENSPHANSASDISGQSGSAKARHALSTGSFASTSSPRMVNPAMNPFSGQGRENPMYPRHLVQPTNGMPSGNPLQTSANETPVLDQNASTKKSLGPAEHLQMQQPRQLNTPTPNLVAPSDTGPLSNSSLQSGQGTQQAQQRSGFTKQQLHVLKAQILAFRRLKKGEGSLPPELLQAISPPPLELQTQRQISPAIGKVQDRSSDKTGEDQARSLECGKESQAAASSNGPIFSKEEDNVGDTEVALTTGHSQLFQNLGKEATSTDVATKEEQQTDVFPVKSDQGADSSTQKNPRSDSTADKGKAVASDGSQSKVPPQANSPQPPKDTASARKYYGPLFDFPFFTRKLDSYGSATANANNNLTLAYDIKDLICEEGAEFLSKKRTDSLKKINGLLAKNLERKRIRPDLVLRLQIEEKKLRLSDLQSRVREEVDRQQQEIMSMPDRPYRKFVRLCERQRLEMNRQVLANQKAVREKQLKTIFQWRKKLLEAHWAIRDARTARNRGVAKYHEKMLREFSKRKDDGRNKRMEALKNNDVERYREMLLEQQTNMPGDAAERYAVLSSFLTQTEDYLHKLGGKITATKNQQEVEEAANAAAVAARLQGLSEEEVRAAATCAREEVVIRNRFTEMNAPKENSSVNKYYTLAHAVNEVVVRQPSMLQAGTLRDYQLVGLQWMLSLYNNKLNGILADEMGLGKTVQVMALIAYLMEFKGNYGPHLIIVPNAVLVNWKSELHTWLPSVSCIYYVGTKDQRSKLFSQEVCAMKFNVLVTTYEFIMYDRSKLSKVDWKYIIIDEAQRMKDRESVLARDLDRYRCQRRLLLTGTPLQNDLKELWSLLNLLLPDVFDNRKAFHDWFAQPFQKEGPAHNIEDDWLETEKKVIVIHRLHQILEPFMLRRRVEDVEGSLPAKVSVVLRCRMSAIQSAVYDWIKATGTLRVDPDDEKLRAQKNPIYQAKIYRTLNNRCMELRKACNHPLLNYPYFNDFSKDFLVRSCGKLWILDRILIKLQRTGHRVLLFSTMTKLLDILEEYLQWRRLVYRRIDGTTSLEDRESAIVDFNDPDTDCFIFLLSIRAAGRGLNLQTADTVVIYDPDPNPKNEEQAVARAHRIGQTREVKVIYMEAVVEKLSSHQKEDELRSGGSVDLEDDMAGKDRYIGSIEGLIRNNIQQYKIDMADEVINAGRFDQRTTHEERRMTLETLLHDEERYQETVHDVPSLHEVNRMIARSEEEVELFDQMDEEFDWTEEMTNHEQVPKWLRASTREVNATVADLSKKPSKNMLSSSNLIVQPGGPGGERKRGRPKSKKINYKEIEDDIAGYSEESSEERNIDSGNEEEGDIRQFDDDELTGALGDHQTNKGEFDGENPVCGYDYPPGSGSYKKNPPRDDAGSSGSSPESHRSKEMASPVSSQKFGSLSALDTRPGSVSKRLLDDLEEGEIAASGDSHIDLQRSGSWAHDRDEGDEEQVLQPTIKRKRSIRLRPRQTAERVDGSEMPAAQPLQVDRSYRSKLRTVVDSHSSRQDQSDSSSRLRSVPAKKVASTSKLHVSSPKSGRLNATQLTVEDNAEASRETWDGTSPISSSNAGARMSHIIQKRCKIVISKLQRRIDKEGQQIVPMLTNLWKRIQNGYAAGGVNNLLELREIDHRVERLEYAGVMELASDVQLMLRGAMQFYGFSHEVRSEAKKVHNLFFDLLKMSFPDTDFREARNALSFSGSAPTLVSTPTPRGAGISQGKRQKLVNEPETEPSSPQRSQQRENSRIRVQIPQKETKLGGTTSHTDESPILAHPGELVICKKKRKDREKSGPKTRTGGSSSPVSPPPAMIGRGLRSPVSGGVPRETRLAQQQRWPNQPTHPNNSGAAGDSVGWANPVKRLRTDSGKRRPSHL
UniProt Q9FZD2: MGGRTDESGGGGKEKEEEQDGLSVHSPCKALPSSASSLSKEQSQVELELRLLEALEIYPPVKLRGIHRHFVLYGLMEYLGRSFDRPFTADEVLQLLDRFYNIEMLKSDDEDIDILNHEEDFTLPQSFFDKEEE
UniProt Q9FX82: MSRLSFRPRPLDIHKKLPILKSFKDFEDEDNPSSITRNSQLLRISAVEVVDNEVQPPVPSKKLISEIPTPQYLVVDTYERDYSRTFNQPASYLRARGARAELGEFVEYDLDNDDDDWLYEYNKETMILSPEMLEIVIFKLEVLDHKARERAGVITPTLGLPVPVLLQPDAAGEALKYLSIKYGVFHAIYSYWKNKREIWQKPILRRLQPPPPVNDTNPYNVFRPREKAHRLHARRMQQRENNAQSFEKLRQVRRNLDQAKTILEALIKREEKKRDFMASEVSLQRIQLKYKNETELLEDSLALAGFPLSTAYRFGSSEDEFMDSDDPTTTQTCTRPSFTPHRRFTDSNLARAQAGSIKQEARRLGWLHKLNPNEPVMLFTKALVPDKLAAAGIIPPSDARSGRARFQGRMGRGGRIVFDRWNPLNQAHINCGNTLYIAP
UniProt F4K569: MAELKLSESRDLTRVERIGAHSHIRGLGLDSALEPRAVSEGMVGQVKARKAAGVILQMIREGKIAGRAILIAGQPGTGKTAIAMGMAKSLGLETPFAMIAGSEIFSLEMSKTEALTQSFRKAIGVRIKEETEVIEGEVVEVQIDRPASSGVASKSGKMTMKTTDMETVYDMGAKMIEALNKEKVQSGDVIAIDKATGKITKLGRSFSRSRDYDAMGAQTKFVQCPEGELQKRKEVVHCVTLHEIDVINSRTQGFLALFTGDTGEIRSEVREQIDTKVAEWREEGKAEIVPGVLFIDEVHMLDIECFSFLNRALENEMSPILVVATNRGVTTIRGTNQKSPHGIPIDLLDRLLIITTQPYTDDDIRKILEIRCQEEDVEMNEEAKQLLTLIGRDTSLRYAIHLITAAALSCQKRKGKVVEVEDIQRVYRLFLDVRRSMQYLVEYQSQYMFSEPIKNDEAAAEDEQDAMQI
UniProt Q9M2X5: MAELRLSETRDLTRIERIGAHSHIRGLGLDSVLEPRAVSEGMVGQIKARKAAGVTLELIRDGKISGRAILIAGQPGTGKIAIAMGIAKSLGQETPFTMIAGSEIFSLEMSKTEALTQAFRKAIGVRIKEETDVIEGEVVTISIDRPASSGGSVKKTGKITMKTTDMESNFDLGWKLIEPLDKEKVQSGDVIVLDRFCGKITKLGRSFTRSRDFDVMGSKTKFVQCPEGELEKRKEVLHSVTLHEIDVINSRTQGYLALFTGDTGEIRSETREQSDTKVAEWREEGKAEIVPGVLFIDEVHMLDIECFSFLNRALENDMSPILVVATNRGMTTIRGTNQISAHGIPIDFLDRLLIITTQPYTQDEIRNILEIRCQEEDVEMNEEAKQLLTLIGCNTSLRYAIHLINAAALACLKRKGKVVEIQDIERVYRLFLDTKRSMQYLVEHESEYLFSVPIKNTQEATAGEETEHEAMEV
UniProt Q9FMT4: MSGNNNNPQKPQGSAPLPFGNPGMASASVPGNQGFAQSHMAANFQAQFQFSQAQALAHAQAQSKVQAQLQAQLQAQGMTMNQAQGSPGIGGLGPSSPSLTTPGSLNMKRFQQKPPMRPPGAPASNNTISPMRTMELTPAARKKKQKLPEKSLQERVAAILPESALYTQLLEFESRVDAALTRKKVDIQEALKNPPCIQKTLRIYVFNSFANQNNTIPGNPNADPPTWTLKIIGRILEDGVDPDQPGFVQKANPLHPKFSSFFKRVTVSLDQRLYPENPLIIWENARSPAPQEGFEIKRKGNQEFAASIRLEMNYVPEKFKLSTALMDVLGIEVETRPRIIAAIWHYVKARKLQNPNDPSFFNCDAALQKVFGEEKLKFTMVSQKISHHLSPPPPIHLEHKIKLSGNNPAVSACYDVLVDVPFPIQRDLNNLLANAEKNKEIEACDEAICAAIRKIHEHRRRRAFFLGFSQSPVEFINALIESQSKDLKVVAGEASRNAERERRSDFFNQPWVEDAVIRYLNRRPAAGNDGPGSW

Experiment [1] deals with T1, One-STrEP-tag:ATSWC4 fusion protein (Arabidopsis thaliana) (UniProt Q8VZL6).
T1 sequence: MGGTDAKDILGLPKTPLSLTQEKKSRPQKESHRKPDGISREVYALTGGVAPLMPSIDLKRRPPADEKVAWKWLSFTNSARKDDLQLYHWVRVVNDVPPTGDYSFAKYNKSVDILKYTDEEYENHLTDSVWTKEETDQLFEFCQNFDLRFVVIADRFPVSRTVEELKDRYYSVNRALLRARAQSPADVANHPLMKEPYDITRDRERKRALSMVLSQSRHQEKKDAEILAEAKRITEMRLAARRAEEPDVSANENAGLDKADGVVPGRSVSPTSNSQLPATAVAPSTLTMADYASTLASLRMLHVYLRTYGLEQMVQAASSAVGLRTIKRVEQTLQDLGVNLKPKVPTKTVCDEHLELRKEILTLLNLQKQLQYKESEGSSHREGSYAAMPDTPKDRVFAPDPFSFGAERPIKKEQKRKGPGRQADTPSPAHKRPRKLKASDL
Put plainly: affinity purification with mass spectrometry; One-STrEP-tagged bait stably expressed in Arabidopsis T87 suspension cells; extract in buffer H or L loaded on Strep-Tactin Superflow resin, seven washes (100 mM Tris-HCl pH 8.0, 150 mM NaCl), eluted with 2.5 mM desthiobiotin; MS/MS (Orbitrap Velos); hits of controls with no bait or Strep-GFP removed.

Experiment [2] has as its target T2, One-STrEP-tag:ATARP4 fusion protein (Arabidopsis thaliana) (UniProt Q84M92).
T2 sequence: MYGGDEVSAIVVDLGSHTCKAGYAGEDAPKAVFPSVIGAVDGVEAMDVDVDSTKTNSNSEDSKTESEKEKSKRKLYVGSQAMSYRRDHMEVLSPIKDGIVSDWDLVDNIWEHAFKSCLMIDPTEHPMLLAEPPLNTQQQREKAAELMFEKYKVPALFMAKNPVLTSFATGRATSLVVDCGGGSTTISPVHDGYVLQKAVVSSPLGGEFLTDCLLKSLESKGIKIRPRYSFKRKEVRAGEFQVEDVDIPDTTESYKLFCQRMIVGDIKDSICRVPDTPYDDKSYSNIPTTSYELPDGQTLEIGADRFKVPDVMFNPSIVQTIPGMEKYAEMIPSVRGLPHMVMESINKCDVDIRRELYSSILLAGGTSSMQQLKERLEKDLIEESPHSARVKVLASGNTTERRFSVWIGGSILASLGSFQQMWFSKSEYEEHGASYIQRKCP
The description is as above.

No constants are given. Whether binding was seen depends on the method and setting. Binding seen in cells or lysates may run through a third protein. Here binding means that the protein was enriched with, or labelled near, the bait; the list need not be complete. For some assays here: No binding means not detected with the bait. Where a sequence is shown, tags or fusion partners need not be part of it.

As to AtEAF1A (from UniProt F4J7T3), the binding entry in experiment [1] and in experiment [2] was “binds” throughout. Turning to AtEAF1B (from UniProt F4J7T2), the binding result in experiment [1] and in experiment [2] was “binds” in each case. Consider AtYAF9A (from UniProt Q9FH40), for which the binding result in experiment [1] is recorded as “binds”. In the case of BRM (from UniProt Q6EVK6 1-2193), the binding entry in experiment [1] is reported as “no binding”; in experiment [2] it was “binds”. Consider EAF6, for which the binding entry in experiment [1] and in experiment [2] was “binds” throughout. In the case of EAF7 (from UniProt Q9FZD2), the binding result in experiment [1] is listed as “binds”. Regarding EPL1A (from UniProt Q9FX82), in experiment [1], the binding result is on record as “binds”. For the molecule EPL1B (from UniProt F4IDH5), the binding entry in experiment [1] and in experiment [2] was “binds” in each case. As to NFRKB, the binding entry in experiment [1] was “no binding”; in experiment [2] it was “binds”.

For PIE1 (from UniProt Q7X9V2 1-2055), the binding entry in experiment [1] and in experiment [2] was “binds” in each case.

In the case of RVB1 (from UniProt Q9FMR9 1-458), the binding result in experiment [1] and in experiment [2] was “binds” each time. On to RVB21 (from UniProt F4K569), for which the binding entry in experiment [1] and in experiment [2] was “binds” throughout. With RVB22 (from UniProt Q9M2X5), the binding entry in experiment [1] and in experiment [2] was “binds” each time. Turning to SWP73A (from UniProt F4JBZ1), the binding entry was “no binding” in experiment [1] and “binds” in experiment [2]. Consider SWP73B (from UniProt Q9FMT4), for which the values for the binding entry in experiment [1] and in experiment [2] were “no binding” and “binds”, respectively. Consider SYD (from UniProt F4IHS2 1-3574), for which the binding result is reported as “no binding” in experiment [1] and “binds” in experiment [2].

B1: ARP7 (protein, UniProt Q8L4Y5 1-363)
chain: MEALVVDAGSKFLKAGAAIPDQSPAMIIPSQMKRMVDDGSSSADNPTTVFEDVTLDPIERGLIRDWDAMEDLLRYVVYTGLGWEEGNEGNILFTDPLCTPKAIREQLVQLMFETFNVSGFYASEQAVLSLYAVGRISGCTVDIGHGKIDIAPVLEGAVQHIASKRFELGGTELTKLFAQELGKTNPSMNLSMSDVEKLKEQYANCAEDEIAYKKTQNCEIEQHTLPDGQVISIGRERYSVGEALFQPSILGLEEHGIVEQLVRIISTVSSENHRQLLENTVLCGGTTSMTGFESRFQKEANLCSSAIRPTLVKPPEYMPENLGMYSAWVGGAILAKVVFPQNQHVTKADYDETGPSVVHRKCF
B1: the binding entry in experiment [1] is recorded as “no binding”; in experiment [2] it was “binds”.

B2: ARP5 (protein, UniProt Q940Z2 1-724)
chain: MAFVSRIRRQSDYNTYPSSIPIVIDNGASYFRIGWAGETEPRVVFRNIVQRPRHKATGETVTIVGDLDPSMMKYFDCTRSGPRSPFDSNVVYQFEIMEYILDYAFDRLGANGSGIDHPILITECACNPVQSRSKMAELLFETYGVPAVAFGVDAAFSYKYNQLHGICKKDGIVLCPGFTTTHSIPFVDGEPIYKGSSRTNIGGYHVTDYLKQLLSLKYPFHSSRFTWEKAEDLKLEHCYIAPDYASEIRLFQEGRKEAEEKTSYWQLPWIPPPTEVPPSEEEIARKAAIREKQGQRLREMAEAKRVSKINDMENQLISLRFLLKQVDQVEEDDIPTFLSDTGYASRQELESTITKVTQSLRKARGEPKNEPAEYEENPDSLNNEKYPLMNVPDDILTPEQLKDKKRQMFLKTTAEGRLRARQKRNEEELEKEKRNQLEEERRRENPESYLEELQAQYKEVLERVEQKKRLKTNGSSNGNNKSGGIGRGERLSAAQRERMRLLTTAAFDRGKGEDTFGSRDEDWQLYKLMSKDNDDDDEQPDSDEAELARLSSRLQEIDPTFVQKVEGELSQTSGEVPRVRPLTEEDYKIVIGIERFRCPEILFHPNLIGIDQVGLDEMAGTSIRRLPHDEKELEERLTSSILMTGGCSLLPGMNERLECGIRMIRPCGSPINVVRAMDPVLDAWRGASAFAANLNFLGNAFTKMDYDEKGEDWLRNYQIRYNYL
B2: the binding entry in experiment [1] is “no binding”; in experiment [2], “binds”.

B3: SWC2 (protein, UniProt F4IP06 1-365)
chain: MEIDEEEPMVFLDRTTRATRGKRMTKLLDDEVEEDEQFWNQEALKEEEHDDEYEAEREVADEFDSDFNDDEPEPDAVAVNEKELRDLPKKRLIYPGKTASKKKKKKTKVVSQLEYIPGDEKPGEELGNKEQEEKEENEAQEDMEGEKVIRKSTRTSVVVRQAERDALRAAIQATTKPIQRKKVGEEKRMTQEEMLLEAAQTEIMNLRNLERVLAREEEVKKKAIVHKAVYKGPQIRYHSKDGCNYLEFCNGASFNSELSTKSVPYPEKAVCVITGLPAKYRDPKTGLPYATRDAFKAIRERFMDEHDGLRKKMEMGDLFDTLVAKGFATKQKRTKIPKSNKSFSLRSSARFLSSESEEESEEDSD
For B3, the binding entry in experiment [1] is on record as “binds”.

B4: SWC6 (protein, UniProt Q9FHW2 1-171)
chain: MEEEMSNRRVSNRTRKVATKMAAALTSNDNRTQAAIARLEALENDNGAIEVIDLNDDEEASLDEDDDLGYLQKKQHKGSKRKTRQAKALEARKAPKSFLELLQEANLESLPSHVPTYLKAAVGPPSSSSRRYFCSVCGYIAGYNCCLCGMRFCSIRCQNIHKDTRCQKFVA
In the case of B4, the binding entry in experiment [1] was “binds”.

B5: MRG1 (protein, UniProt Q94C32 1-320)
chain: MGSSSKEETASDGDTASGGASPSNDGRLFSEGERVLAYHGPRVYGAKVQKVELRKKEWKYFVHYLGWNKNWDEWVSADRLLKHTEENLVKQKALDKKQGVEKGTKSGRSAQTKTRSSADTKADKDDTKTNAAKGKKRKHESGNEKDNVTAEKLMKIQIPASLKKQLTDDWEYIAQKDKVVKLPRSPNVDEILSKYLEFKTKKDGMVTDSVAEILKGIRSYFDKALPVMLLYKKERRQYQESIVDDTSPSTVYGAEHLLRLFVKLPDLFSYVNMEEETWSRMQQTLSDFLKFIQKNQSTFLLPSAYDSDKVSDGKGKGKDD
In the case of B5, the binding result in experiment [1] is “binds”.

B6: ARP6 (protein, UniProt Q8LGE3 1-421)
chain: MSNIVVLDNGGGLIKAGQGGERDPTTVIPNCLYKPLSSKKFIHPSPLTTLSDEIDLTSAAVRRPIDRGYLINSDLQREIWSHLFTSLLHIAPSSSSLLLTEAPLSIPSVQRTTDELVFEDFGFSSLYIAHPQSLVHLYEASRQPDSILSKTQCSLVVDCGFSFTHAVPVLHNFTLNHAIKRIDLGGKAFTNYLKELVSYRSINVMDETFLVDDAKEKLCFVSLDLLRDLRLARNGNTLIKSTYVLPDGVTHTKGYVKDPQAAKRFLSLSEKESVVVMDKVGERKKADMNKNEIDLTNERFLVPETLFQPADLGMNQAGLAECIVRAINSCHSYLQPVLYQSIILTGGSTLFPQLKERLEGELRPLVPDHFDVKITTQEDPILGVWRGGSLLASSPDFESMCVTKAEYEELGSARCRRRFFH
On to B6, for which, in experiment [1], the binding result is given as “binds”.

B7: YY1 (protein, UniProt Q2V3L3 1-387)
chain: MDHQNYQYQNPFERRPILKSKAPAVKWIKEWVPQDIVATGGKCHLHKWVTEDTFSRLKEKEKEPDVPEPEPEPTTEILFLCSYDGCGKTFFDVSALRKHSHIHGERQYVCDQEGCGKKFLDSSKLKRHYLIHTGERNYICTYEGCGKAFSLDFNLRSHMKTHSQENYHICPYSGCVKRYAHEYKLKNHVAAYHEKNGGGETPKYTPPAEKVLRTVKTPATVCGPSSDRPYACPYEGCEKAYIHEYKLKLHLKREHPGHLQEENADTPTLNKHNGNDRNEIDDGSDQDVYRKHASNGKGQTHKQQSRAKPNMRTPPAKVGKKGSTSSPAKARIAKKPWQAKETFEEVEREEEEDSEETEEDRDNVEDGWRFGENNEDDDDDEETEYED
As for B7, the binding result is listed as “no binding” in experiment [1] and “binds” in experiment [2].

B8: ARP9 (protein, UniProt Q9LSW2 1-596)
chain: MAKPKSNSHLSWQDYLKTVAPTQILSERGANLVVINLGSANVRVGLAMDEKPFNVPNCIARYITQSGKPTVVDQMLNTEVTTNQHVDRERAYNSAASLLKILFLDESSSSGSASRKMGRIDGYNQASTIKKDSVFTWTDVYEDEKISLASPAETSPDKGDASASEAVPDVTDSKDTSESKRKYRKMIFGEEALKISPKEPYCLYHPIRRGHFNVSPHYSAQRVCEDLTAILDWILLEKLHITHKERFSFHAVIVVPETFDTREIKEMLTIVLGELYFNSAVVHQEGLSAVFGNGLTTACIVNIGAQTSTVVCVEDGVSLPNTEKILPFGGEDICRCLLWIQRHYQKWPQINTDVLAKPIDMLMLNQLKESFCEIRAGELETVATVHSYEEGMPAVPHKTNLTSLNVPPMGLFYPNLLVPEIFPQPPRQWFQDYENMLEDTWNMDFGGGGNMGLPMWDSFAFSPSKPKKEEKIGLAEAITSSILSAGRIDLRRKLFSSIQLIGGAGLTKGLVAAVEERVLHAIPPTEAIDTVQVLPSRTEPQFVTWKGGAILGILDFGREAWIERHQWMVNGVNKGGLKKYKDSYHLQGQAMYFINP
As to B8, the binding entry is “no binding” in experiment [1] and “binds” in experiment [2].
